{"source": "the RNAGym collection of RNA variant scans (doi:10.1126/science.aae0568)", "parents": {"B1": {"name": "tRNA (parent)", "chain": "GUUCCGUUGGCGUAAUGGUAACGCGUCUCCCUCCUAAGGAGAAGACUGCGGGUUCGAGUCCCGUACGGAACG"}}, "note": "This sample is rich in variants without activity."}
{"variants_of": "B1", "experiment": "yeast fitness relative to wild type (ratio to wild type); higher = fitter; tRNA-Arg(CCU), competitive growth, 37 C, YPD", "procedure,_shortened": "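Start and end populations of a pooled competition were compared by 100-nucleotide paired-end sequencing of gene amplicons. The Saccharomyces cerevisiae strains carried tRNA-Arg(CCU) gene variants at the native genomic locus, synthesised with a 3% per-site mutation rate at 69 sites, and competed in YPD at 37°C for 24 hours in six parallel replicates. Darwinian fitness relative to wild type was based on the change in genotype frequencies. Genotypes required ≥ 100 starting reads, and estimates < 0.5 were set to 0.5.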"}
{"variant": "GAUCCGUCGGCGUAAUGGUAACGCGUCUCCCUCGUAAGGAGAAGACUGCGGGUUCGAGUCCCGUACGGAACG", "yeast fitness": "≤ 0.5"}
{"variant": "GUUCUGUUGGCGUAAUGGUAACGCGUGUCCCUCCUAAGGAGAAGACUGCGGGUUCGAGUCCAGUCCGGAACG", "yeast fitness": "≤ 0.5"}
{"variant": "GUUACGUUGACGUAAUGGUAGGGCGUCUCCCUCCUAAGGAGAAGACUGCGGGUUCGAGUCCCGUACGGAACG", "yeast fitness": "≤ 0.5"}
{"variant": "GCUCCGUUGGCGUAAUGGUAACGCGUCUCCCUCCUAAGGAGAAGCCUGCGGGUUCGAGUCCCGUAAGGAACG", "yeast fitness": "≤ 0.5"}
{"variant": "GUUCCGUUGGCGUAAUGGUAACACGUCUCCCUUCUAAGGAAAAGACUGCGGGUUCGAGUGCCGUACGGAACG", "yeast fitness": "≤ 0.5"}
{"variant": "GUUCCGUUGACGUAAUGGUAACGUGUGUCCCUCCUAAGGAGAAGACUGCGGGUUCGAGUCCCGUACGGAACG", "yeast fitness": "≤ 0.5"}
{"variant": "GUUCCGUGGGCGUAAUGGUAACGCGUCAGCCUCCUAAGGAGAAGACUGCGAGUUCAAGUCCCGUACCGAACG", "yeast fitness": "≤ 0.5"}
{"variant": "GUUCCGUUGCCGUAAUGGUAACGCCCCUCCCUCCUAAGGAGAAGACUGCGGGUUCGAGUCCCGUACGGACCG", "yeast fitness": "≤ 0.5"}
{"variant": "GUUCCGUUGGCGUAAAGGUAACGCGUCUGCCUCCUAAGGAGAUGACUGCGGGUUCGAGUCCCGUACGGAUCG", "yeast fitness": "≤ 0.5"}
{"variant": "GAUCCGUUGGCGGAAUGGUAACGCGUCUCCCUCCUAAGGCCAAGACUGCGGGUUCGAGUCCCGUACGGAACG", "yeast fitness": "≤ 0.5"}
{"variant": "GUUCCGUUGGCGUAAUGGUAACGCGUCUCCCUCCUAAGGAGAAGACUGCGGGUUCGAGUCAUGUUCGGCACG", "yeast fitness": 0.52}
{"variant": "GUUCCGUUGGCGUAAUGGUAACGCGUCUCACGCCUAAGGAGAAGACUGUGGGUUGGAGUCCCGUACGGAACG", "yeast fitness": "≤ 0.5"}
{"variant": "GUCCCAUUGGCGUAAUGGUAACGCGUCUCUCUCCUAAGGAGAAGGUUGGGGGUUCGAGUCCCGUACGGAACG", "yeast fitness": "≤ 0.5"}
{"variant": "GUAUCGAUGGCGUAAUGGUAACGCGUCUCCCUCCUCAGGAGAAGCCUGCGGGUACGCGUCCCGUACGGAACG", "yeast fitness": "≤ 0.5"}
{"variant": "GUUCCGUUGGCGUAAUGGUAACGCGUUUCCCUCCUAAGGAGGAGACAGCGGGUUCGAGUCCCGUAUGGAACG", "yeast fitness": "≤ 0.5"}
{"variant": "GUUCCGUUGGCGUAAUGGUAACGGGUCUCCCUCUUCAGGAGAAGACUGCGGGUUCGAGUCCCGUAUGGAACG", "yeast fitness": "≤ 0.5"}
{"variant": "GUUCCGUUGGCGUAGUGGUAACGCAUCUCCCGCCUAAGGGGAAGACUGCGGGUUCGAGUGCAGUACGGAACG", "yeast fitness": "≤ 0.5"}
{"variant": "GUUCCGUUGGCGUAAUGGUAACGCGUCUCCCUCCUAAGGAGAGGACUGCGGGUUCGAGACCCGUAGGGAACG", "yeast fitness": "≤ 0.5"}
{"variant": "GUUCUGUUGGCGUAAUGGUAACGCGUCUCCCUCCUAAGGAGAAGACUGUGGGUUGGAGUCACGUACGGAACG", "yeast fitness": "≤ 0.5"}
{"variant": "GUUCAGUUGGCGUAAUGGUAACGCGUCUCCCCCCUCAGGAGAAGACUGCGGGUUCGAGUCCCAUACGGAACG", "yeast fitness": "≤ 0.5"}
{"variant": "GUUCCGUUGGCGUAAUGGUAACGCGUCUCCCUCCUUAGGGGAAGACUCCAGGUUCGAGUCCCGUACGGAACG", "yeast fitness": "≤ 0.5"}
{"variant": "GUUCCGUUGGCGUAAUGGUAACGCGUCUCACUCCUAAGGAGAAGACUGGGGGUUCGAGUCCCGUCCGGAACG", "yeast fitness": "≤ 0.5"}
{"variant": "GUUCCGUUGGCGUAAUGGUAAUGCGUCUCCCUCCUUAGGAGAAGACUGCGGGUUCGAGUCACGUACGGAACG", "yeast fitness": "≤ 0.5"}
{"variant": "GUUCCGUUGGCGUCAUGGUAACGCAUCUGCCUCCUAAGGAGACGACUACGGGUUCGAGUCCCGUACGGCACG", "yeast fitness": "≤ 0.5"}
{"variant": "GUUCCGUUGGGGUAAUGGUAACGCGUCUCCCUCCUAAGGAGAACACUGCGGGUUCGAGUCCCGUAAGGAACG", "yeast fitness": 0.614}
{"variant": "GUUCCGUUGGCGUAAUGGUACCGCGUCUCCCUCCUAAGGAGAAGACUGCGGGUUCAAGUCCCGUACUGAACG", "yeast fitness": "≤ 0.5"}
{"variant": "GUUCCGUUGGCGUAAUGGUAACGCGUCUCCCUCCUAAGAAGAAGACUGCGGGUUCGAGUUCCGAACGGAACG", "yeast fitness": "≤ 0.5"}
{"variant": "GUUCCGGUGGGGUAAUGGUAACGCGUCUCCCUCUUAAGGAGAAGACUGGGGGUUCGAGACCCGUACGGAACG", "yeast fitness": "≤ 0.5"}
{"variant": "GCUCCGUUGGCGUAAUGGUAACGAGACUCCCUCCUAAGGAGAAGACCGUGGGUUCGAGUCUCGUACGGAACG", "yeast fitness": "≤ 0.5"}
{"variant": "GUUCCGUUGGCGUAAUGGUAACGCGUCUCCCUCCUCAGGAGAAGACACCGGGUUCGAGUCCCGUACGGAACG", "yeast fitness": "≤ 0.5"}
{"variant": "GUUCUGUUGGCGUAAUGGUAACGCGUCUCCCUCAUAAGGAGAAGACUGCAGGUUCGAGGCCAGUACGGAACG", "yeast fitness": "≤ 0.5"}
{"variant": "GUUACGUUGGCGUAAUGGUAACGCGUCUCCCUCCUAAGGAGAAGACUGCGGGUUCGGGUCUCGUACGGAACG", "yeast fitness": "≤ 0.5"}
{"variant": "GUUCCGUUGGCGUAAUGGUAACGCCUGUCCCUCCUAAGGAGAAGACUGCGGGUUCGAGUCCCGUACGGAACG", "yeast fitness": 0.553}
{"variant": "GCUCCGUUGGCGUAAUGGUGACGCGUGUCCCUCCUACCGAGAGGACUGCGGGUUAGAGUCCCGGACGGAACG", "yeast fitness": "≤ 0.5"}
{"variant": "GUUCCGUUGGCGUAAUGGUAACGCGUCUCCCUCCUAAGGAGAAGACUGCGGGUUCCAGUCCCGUACGGUCCG", "yeast fitness": "≤ 0.5"}
{"variant": "GUUCAGUCGGCGUAAUGGUGACGCGUCUCCCUCGUAAGGAGAUGACUGCGGGUUCGAGUCCCGUAUGGAACG", "yeast fitness": "≤ 0.5"}
{"variant": "GUUCCGUUGGCGUAAUGGUUACGCGUUUCCCUCCUAAGGAGAAGACUGCGGGUUGGAGUCCCGUACGGAACG", "yeast fitness": "≤ 0.5"}
{"variant": "GUUCCGUUGGCGUAAUGGUAACGCGUCUCCCUCCUAAGGAGAUGACUCCGGGUCCGAGUGCCGUACGGAACG", "yeast fitness": "≤ 0.5"}
